Data taken from ChEMBL document CHEMBL3988442, “University of Dundee, Small-Polar-MMV Screening Library” (2021).

Each number is a percent effect as filed. The record does not define 0% and 100%; most values in the screen are far below 50% and negative numbers occur (in some assays of this library far below -100). This is an unselected part of the compounds tested.

A: 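Whole-cell assay for inhibitors of Mycobacterium tuberculosis growth, labelled Cornell in the record; the read-out is not stated. The concentration is filed as 10 mM, unlikely as a test dose, so the dose is not known. The record gives no direction; compounds strong in two other growth screens of this library score well above the rest, so higher reads as stronger inhibition. Size under these conditions: about 53,000 compounds, about 900 of them at 50% or above in at least one test.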
B: 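Assay on Mycobacterium tuberculosis, filed only as a heat shock assay from Cornell; the read-out is not stated. The concentration is filed as 10 mM, unlikely as a test dose, so the dose is not known. The record gives no direction; compounds that gave an IC50 in retests scored well above the rest, so higher reads as stronger inhibition. Size under these conditions: about 69,000 compounds, about 930 of them at 50% or above in at least one test.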

* Cc1ccc(Cn2ccc(NS(C)(=O)=O)n2)cc1 | A: -14.41%; B: 9.853%
* COc1ccc(OCCN2CCC(c3ccnn3CCO)CC2)cc1 | A: -19.91%; B: -19.13%
* CCOCC(=O)NCC(C)(O)c1cc(C)oc1C (stereo not given) | A: 24.98%; B: 11.58%
* c1cnc(N2CCCC(c3cncc(-n4ccnc4)n3)C2)nc1 (stereo not given) | B: -40.48%
* CN(C)CCNC(=O)Cn1cnc2cc(NC(=O)C3CC3)ccc21 | A: -28.58%; B: 11.24%
* O=C(CN1CCCS1(=O)=O)Nc1ccc(OC2CCCC2)c(Cl)c1 | B: -34.99%
* COc1cc(-c2cc(-c3ccn(C)c3)nc(N)c2C#N)cc(OC)c1O | A: 28.03%; B: -3.287%
* CCc1ncc2c(n1)CN(CC(=O)Nc1ccc(Cl)cn1)CC2 | B: 10.92%
* Cc1cccc(NC(=O)CN(C)C(=O)c2ccc(-n3cccc3)nc2)n1 | A: -22.31%; B: 8.653%
* CC1=C[C@@H](CN2CCN(C)CC2)[C@H](C(C)C)C[C@H]1Cc1nnc(C)o1 | A: 11.91%; B: -34.03%
* [H][C@@]12CN(C(=O)c3ccc[nH]3)C[C@]1([H])C(=O)N(Cc1cccc(F)c1)C2 | A: 2.316%; B: -8.018%
* CCN(Cc1cccc(C(=O)Nc2c(C)cnn2C)c1)[C@H]1COC[C@@H]1O | B: -1.194%
* O=C(O)C(F)(F)F.[H][C@@]12CN(C(=O)c3ccoc3C)C[C@]1([H])OCCN2C(C)C | A: 3.919%; B: 3.149%
* CCc1cnc(CN(C)C2CCN(CC3CCN(C(C)=O)CC3)C2)o1 (stereo not given) | A: 6.622%; B: 3.072%
* CCS(=O)(=O)CC(=O)NC(C)c1ccc(F)cc1F (stereo not given) | B: 17.75%
* CC(C)(C)c1nnc(CN2CCOC(Cn3cncn3)C2)o1 (stereo not given) | A: 12.92%; B: -6.02%
* O=C(O)CN1CCC(c2ccccc2)C1 (stereo not given) | A: 18.21%; B: -12.51%
* CC(CCc1cccc(F)c1)NC(=O)NCc1ncnn1C (stereo not given) | A: 8.793%; B: 7.563%
* CN(Cc1ccco1)C(=O)CN1CCCC1Cn1cncn1 (stereo not given) | B: 9.158%
* CC(=O)N1CCc2c(nc(N(C)C)nc2N(C)CC2CCCO2)C1 (stereo not given) | A: 12.23%; B: -15.23%
* Cc1cc(-c2cnc(NC3CCCCC3)nc2-c2ccco2)on1 | A: 97.15%; B: 43.22%
* CC(=O)NCCC1CCCCN1C(=O)c1cccc(CCC(C)(C)O)c1 (stereo not given) | A: -6.59%; B: 4%
* CCC1CCCCN1C(=O)Cn1nc(-c2ccc(C)s2)cc(N)c1=O (stereo not given) | A: 45.47%; B: 0.627%
* c1ccc(C(OCCNC2CCc3ncnn3C2)c2ccccc2)cc1 (stereo not given) | A: 3.261%; B: 10.87%
* CCS(=O)(=O)c1ccc(N2CCC(NC(=O)c3ccccn3)CC2)cc1 | A: -6.91%; B: -10.81%
* CC1(C)CN(CC(F)(F)F)CCN1CC(N)=O | A: 31.34%; B: -12.26%
* N#Cc1cccnc1N1CCC(Nc2ccccc2)C1 (stereo not given) | A: -40.84%; B: 12.59%
* O=C(NC1CCN(c2snc3ccccc23)CC1)C1CCC1 | B: 3.304%
* CNc1cc(C)nc(NCc2cc(C)cc3c(C)c(C)[nH]c23)n1 | A: -9.133%; B: 35.24%
* [O-][S+](Cc1c(F)cccc1Cl)Cc1nnnn1C1CC1 (stereo not given) | A: -4.423%; B: 5.554%
* N#Cc1ccc(C(=O)O)nc1/C=C/c1cccc(Br)c1 | A: 10.67%; B: -13.42%
* Cc1occc1C(=O)NCC(=O)N1CCC(COc2ccccc2)CC1 | A: 6.785%; B: -20.98%

The last 4 entries again:

| structure | A | B |
|---|---|---|
| `CNc1cc(C)nc(NCc2cc(C)cc3c(C)c(C)[nH]c23)n1` | -9.133% | 35.24% |
| `[O-][S+](Cc1c(F)cccc1Cl)Cc1nnnn1C1CC1` (stereo not given) | -4.423% | 5.554% |
| `N#Cc1ccc(C(=O)O)nc1/C=C/c1cccc(Br)c1` | 10.67% | -13.42% |
| `Cc1occc1C(=O)NCC(=O)N1CCC(COc2ccccc2)CC1` | 6.785% | -20.98% |